# Experimental data from PubChem BioAssay AID1487 (National Center for Advancing Translational Sciences (NCATS), 2009).
# The list shows a part of the results. Shown are side measurements of this screen, not its main read-out; they come without a call. Most of these compounds were active or inconclusive in the main read-out, so they are no random draw. Words in brackets tell the shape of the fitted curve; partial curves, single points and poor fits give uncertain potencies.
# Assay: qHTS Assay for Modulators of Lamin A Splicing
# Details: HeLa LMNA splicing GFP/RFP minigene ratio, 48 h
# How it was run: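 Read-out is the ratio of GFP to DsRed2 object intensity, acquired by 488 nm laser-scanning cytometry on HeLa lamin A-EGFP minigene reporter cells. Compound incubation 48 hrs at 37 °C in Opti-MEM with 2% FBS; DMSO 0.5% final.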
# [1] = measured here: RFP viability control channel
# [2] = measured here: GFP splicing reporter channel
Structure (SMILES),AC50 [1],AC50 [2]
CC(C)Nc1nnc(SC(C)C(=O)NCc2ccc3c(c2)OCO3)s1 (stereo not given),"35.5 µM [falling, partial curve, poor fit]",
CCOc1ccccc1NC(=O)C(=O)N/N=C/c1cc(Br)ccc1O,"17.8 µM [falling, partial curve, poor fit]",
COc1ccc(C(=O)/C=C/Nc2ccc(S(=O)(=O)Nc3cccc(C(C)=O)c3)cc2)cc1,"11.2 µM [rising, partial curve, poor fit]",
CCOC(=O)c1ccc(NC(=O)C(=O)NCCc2ccc(OC)cc2)cc1,"2.24 µM [falling, partial curve, poor fit]","6.31 µM [falling, partial curve]"
COc1cccc(-c2nc(Nc3ccncc3)c3ccccc3n2)c1,"3.55 µM [falling, partial curve]","17.8 µM [falling, partial curve]"
CN(C)CC[C@H](c1ccc(Br)cc1)c1ccccn1,"0.0631 µM [falling, full curve, poor fit]","0.0562 µM [falling, single point]"
O=C(Nc1ccccc1N1CCOCC1)c1cccc(NS(=O)(=O)c2ccc(F)c(F)c2)c1,"35.5 µM [rising, partial curve, poor fit]",
COC(=O)c1cc(=O)c(O)c2c(O)c(O)ccc2c1,"35.5 µM [falling, single point]","25.1 µM [falling, partial curve]"
O=C(CCc1nnc(CCCCc2ccccc2)o1)N1CCC(N2CCCC2)CC1,,"3.16 µM [rising, partial curve]"
CCOC(=O)/C(=C\c1ccc(OC(F)F)cc1)C1=Nn2c(nnc2-c2ccc(Cl)cc2)SC1,"6.31 µM [falling, single point]","6.31 µM [falling, single point]"
Cn1c(CN2CCOCC2)nc2cc(NC(=O)c3ccc(F)cc3)ccc21,"31.6 µM [rising, single point]",
Cc1ccc(C(=O)NNC(=O)CSc2n[nH]c(-c3cccnc3)n2)cc1,"3.98 µM [rising, single point]",
Cc1ccc(-c2nc(C(=O)Nc3cccc(C#N)c3)c3n2CCCCC3)cc1,,"0.00891 µM [rising, full curve, poor fit]"
NC(=O)c1ccsc1NC(=O)c1ccc(S(=O)(=O)N2CCCc3ccccc32)cc1,"0.708 µM [rising, full curve]",
Cc1noc2ncnc(Sc3c(Cl)cccc3Cl)c12,"12.6 µM [falling, partial curve]","10 µM [falling, partial curve, poor fit]"
NC(=O)/C(=C/c1ccc2c(c1)OCO2)NC(=O)c1ccco1,"0.708 µM [falling, full curve, poor fit]",
Cc1cccc(Cn2c(NCCO)nc3c2c(=O)n(C)c(=O)n3C)c1,"7.94 µM [rising, partial curve]",
Cn1nc([N+](=O)[O-])c(C(C#N)c2ccccn2)c(Cl)c1=O (stereo not given),"14.1 µM [rising, partial curve]",
CC(=O)c1c(C(C)=O)c(C)n(Cc2ccc(Cl)cc2)c1C,"14.1 µM [rising, partial curve]","1.41 µM [rising, partial curve]"

# Quoted at random: 3 compounds from above, in no set order.
Structure (SMILES),AC50 [1],AC50 [2]
CCOC(=O)/C(=C\c1ccc(OC(F)F)cc1)C1=Nn2c(nnc2-c2ccc(Cl)cc2)SC1,"6.31 µM [falling, single point]","6.31 µM [falling, single point]"
COC(=O)c1cc(=O)c(O)c2c(O)c(O)ccc2c1,"35.5 µM [falling, single point]","25.1 µM [falling, partial curve]"
Cc1ccc(-c2nc(C(=O)Nc3cccc(C#N)c3)c3n2CCCCC3)cc1,,"0.00891 µM [rising, full curve, poor fit]"

# More results follow.

Structure (SMILES),AC50 [1],AC50 [2]
CCCCCn1c(Br)nc2c1c(=O)n(CC(N)=O)c(=O)n2C,"5.01 µM [rising, partial curve]",
CN1N=C(C(C)(C)C)CSC1=Nc1ccccc1,,"3.98 µM [rising, partial curve]"
O=C(Nc1ccc(F)cc1)C1CCCO1 (stereo not given),,"0.0316 µM [rising, full curve, poor fit]"
COc1ccc(CCNC(=O)c2cc3sccc3n2C)cc1OC,"15.8 µM [rising, partial curve]","5.01 µM [rising, partial curve]"
O=C(O)c1cc(=O)[nH]c2c(Cl)cccc12,,"0.447 µM [falling, full curve, poor fit]"
O=C(Nc1ccc(F)cc1)c1ccc(S(=O)(=O)NCC2CCCO2)cc1 (stereo not given),"22.4 µM [rising, single point]",
CN(Cc1ccccc1)c1ccc(N2C(=O)CCCC2=O)cc1[N+](=O)[O-],"17.8 µM [rising, single point]","20 µM [rising, partial curve, poor fit]"
CCN(CC)S(=O)(=O)c1cccc(C(=O)Nc2ccccc2)c1,"11.2 µM [rising, partial curve]",
CCOc1ccc(OCc2ccc(C(=O)Nc3ccc(Cl)cn3)o2)cc1,"14.1 µM [rising, single point]",
CCc1cc2c(=O)c(-c3nc4ccccc4n3C)coc2c(CN2CCOCC2)c1O,"10 µM [rising, partial curve, poor fit]",
CCOc1ccc(N2CC(C(=O)Nc3ccccn3)CC2=O)cc1 (stereo not given),"2.82 µM [rising, partial curve, poor fit]","14.1 µM [rising, partial curve, poor fit]"
O=C(Nc1ccc(Cl)cc1)c1cc(S(=O)(=O)N2CCCc3ccccc32)ccc1F,"0.01 µM [falling, full curve, poor fit]","4.47 µM [falling, partial curve, poor fit]"
CC(C)C[C@H](N)c1nnc(S(=O)(=O)Cc2cccc(F)c2)o1,"35.5 µM [falling, single point]","35.5 µM [falling, single point]"
CCc1cccc(C)c1NC(=O)NC1COc2ccccc2C1 (stereo not given),,"0.355 µM [rising, partial curve, poor fit]"
CCc1nnc(NC(=O)CSc2ncc(-c3ccccc3)n2C)s1,,"35.5 µM [rising, single point]"
C=COC(=O)CSc1nc(-c2cccs2)ccc1C#N,"35.5 µM [rising, single point]",
Fc1ccccc1Nc1nc2c(s1)CCc1ccccc1-2,"0.158 µM [rising, full curve]","0.0631 µM [rising, full curve, poor fit]"
COc1ccc(NC(=O)C(C)N2c3cccc4cccc(c34)S2(=O)=O)cc1 (stereo not given),"17.8 µM [rising, single point]",
O=C(Cc1ccc(Cl)cc1)NC(=S)Nc1ccccc1N1CCOCC1,"14.1 µM [rising, single point]","20 µM [rising, single point]"

Structure (SMILES),AC50 [1],AC50 [2]
Cc1nn(-c2ccccc2)nc1C(N)=O,"0.0224 µM [falling, full curve, poor fit]",
CN1C2=CC=CC=CC2=[N+](C)C12C=CC(=[N+]([O-])[O-])C=C2[N+](=O)[O-] (stereo not given),"35.5 µM [rising, single point]",
COc1ccccc1NC(c1cccnc1)c1ccc2cccnc2c1O (stereo not given),"11.2 µM [falling, partial curve]","11.2 µM [falling, partial curve]"
CN(C)C(=O)C12CCC(C)(c3nc4ccccc4nc31)C2(C)C (stereo not given),"0.141 µM [falling, full curve, poor fit]",
Cn1cc([N+](=O)[O-])c(C(=O)Nc2ccc(-c3nc4ccccc4[nH]3)cc2)n1,"3.98 µM [rising, full curve]",
CC(C)CCn1c(O)c(N=Nc2ccccn2)c2ccccc21,"15.8 µM [rising, partial curve, poor fit]",
Cn1c(=O)c(C(=O)COC(=O)c2cc(-c3ccccc3)nc3ccccc23)c(N)n(Cc2ccccc2)c1=O,"2.82 µM [rising, full curve]","3.98 µM [rising, single point]"
O=C(CCCSc1ccccc1)Nc1nc(-c2ccccn2)cs1,"31.6 µM [rising, single point]",
CCOC(=O)C(C(=O)OCC)c1cc(Br)c2noc3c2c1C(=O)c1ccccc1-3,"5.62 µM [falling, full curve]","5.01 µM [falling, full curve]"
O=C(O)CC(SCC(=O)Nc1ccc(S(=O)(=O)N2CCCC2)cc1)C(=O)O (stereo not given),"0.112 µM [falling, full curve]",
COc1ccc(-c2csc(NC(=O)c3ccc(S(=O)(=O)N4CCc5ccccc5C4)cc3)n2)c(OC)c1,"2.82 µM [rising, full curve]",
O=C(CCn1c(=O)[nH]c2ccccc2c1=O)N1CCN(c2cccc(C(F)(F)F)c2)CC1,,"20 µM [rising, single point]"
CCn1cc(C(=O)N2CCc3ccccc32)c(=O)c2cc(S(=O)(=O)N3CC(C)CC(C)C3)ccc21 (stereo not given),"20 µM [rising, single point]","20 µM [rising, single point]"
O=C(c1ccc(Br)cc1)C1CCc2occc2C1=O (stereo not given),,"25.1 µM [rising, single point]"
O=C(c1sc2cc(F)ccc2c1Cl)N1CCN(c2cccc(Cl)c2)CC1,"35.5 µM [rising, partial curve, poor fit]",
CCCCc1cc2c(cn1)=C(OC(=O)C1CCCC1)C(C)(OC(=O)CC)C(=O)C=2 (stereo not given),"1.26 µM [rising, partial curve, poor fit]","0.000794 µM [rising, full curve, poor fit]"
CCOC(=O)c1c(NC(=O)C2C3C=CC(C3)C2(C)C(=O)O)sc2c1CCCC2 (stereo not given),"20 µM [rising, partial curve]",
COCCNc1ncnc2c1cnn2Cc1ccc(Cl)cc1,"14.1 µM [rising, single point]",
